Results as given in patent US20250320282A1 (MABYLON, published 2025).
Changes are numbered by the printed parent chain. Results are given in words; binding and its absence hold for the method and conditions named. Some binding calls cover weakened binding; strength is not graded here. Tags and fused reporters may be left off the sequences shown. Values belong to the binder of their own block, whether it stands above or below them.

Key:
[1] = biological target: T1, Ara h 2 (Arachis hypogaea allergen 2) (Arachis hypogaea, UniProt Q6PSU2 22-172); assay: ELISA, purified rabbit antibody
T1 construct: Peanut allergen; also called nAra h 2; natural Ara h 2
T1 sequence: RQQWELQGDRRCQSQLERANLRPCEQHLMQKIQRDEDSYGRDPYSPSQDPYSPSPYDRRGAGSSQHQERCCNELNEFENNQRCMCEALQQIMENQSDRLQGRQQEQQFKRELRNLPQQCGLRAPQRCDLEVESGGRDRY

[2] = biological target: T2, Ara h 6 (Arachis hypogaea allergen 6) (Arachis hypogaea, UniProt Q647G9 22-145); assay: ELISA, purified rabbit antibody
T2 construct: Peanut allergen; also called Ara h 6.0101; nAra h 6
T2 sequence: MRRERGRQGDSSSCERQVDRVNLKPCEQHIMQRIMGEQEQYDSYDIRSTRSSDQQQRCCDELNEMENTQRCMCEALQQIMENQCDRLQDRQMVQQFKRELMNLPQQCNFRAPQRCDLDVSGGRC

[3] = biological target: T1, Ara h 2 (Arachis hypogaea allergen 2); assay: ELISA
[4] = biological target: T1, Ara h 2 (Arachis hypogaea allergen 2); assay: ELISA, antibody titration on coated Ara h 2
[5] = biological target: T1, Ara h 2 (Arachis hypogaea allergen 2); assay: ELISA, antibody titration on coated nAra h 2
[6] = biological target: T3, Ara h 3 (Arachis hypogaea allergen 3) (Arachis hypogaea); assay: ELISA, purified rabbit antibody
T3 construct: Peanut allergen; also called Ara h 3.0101; nAra h 3
T3 chain: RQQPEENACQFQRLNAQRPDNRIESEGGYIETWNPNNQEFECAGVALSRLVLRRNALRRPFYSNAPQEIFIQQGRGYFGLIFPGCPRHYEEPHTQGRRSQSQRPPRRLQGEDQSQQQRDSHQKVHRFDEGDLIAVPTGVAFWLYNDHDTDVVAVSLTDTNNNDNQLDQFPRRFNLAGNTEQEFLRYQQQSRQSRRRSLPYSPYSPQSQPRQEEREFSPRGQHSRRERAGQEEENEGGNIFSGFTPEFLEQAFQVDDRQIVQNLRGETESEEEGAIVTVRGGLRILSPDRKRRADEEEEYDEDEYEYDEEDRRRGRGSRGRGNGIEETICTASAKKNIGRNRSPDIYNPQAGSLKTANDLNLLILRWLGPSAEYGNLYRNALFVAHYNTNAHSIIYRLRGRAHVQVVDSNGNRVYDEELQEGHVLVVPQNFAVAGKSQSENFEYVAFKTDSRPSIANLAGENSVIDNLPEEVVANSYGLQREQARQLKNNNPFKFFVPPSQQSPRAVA

[7] = biological target: T3, Ara h 3 (Arachis hypogaea allergen 3); assay: ELISA
[8] = biological target: T1, Ara h 2 (Arachis hypogaea allergen 2); assay: as shown in the appended examples
[9] = biological target: T3, Ara h 3 (Arachis hypogaea allergen 3); assay: as shown in the appended examples
[10] = biological target: T3, Ara h 3 (Arachis hypogaea allergen 3); assay: ELISA, antibody titration on coated nAra h 3

binding [1]: binds | binding [2]: binds
B1: 2F8_rb_IGHV1S7_J4+IGKV1S21_JK1-2 (antibody, V domains shown)
VH: QQLKESGGGLVKPGGSLKLCCKASGFTFSDYNMNWVRQAPGKGLEWIGSITRSSRTIYYADSVKGRFTLSRDNAQSTVCLQLNSLTAADTATYFCAREDFNVYTGPYYYDVWGPGTLVTVSS
VL: YVMMTQTPSSVSEAVGGTVTIYCRASQSVSNMFLVWYQQKPGQPPKLLIYGASTRATGVPSRFRGSGSGTQFTLTISGMKAEDVATYYCQQNGNSPYTFGGGTEVVVK

B2: 2F8 (antibody, V domains shown)
VH: EVQLVESGGGLVKPGGSLRLSCAASGFIFSDYNMNWVRQAPGKGLEWVSSITRSSRTIYYADSVKGRFTISRDNAKNSLHLQMNSLRDADTAVYYCAREDFDVSTGPYYMDVWGNGTTVIVSS
VL: EIVLTQSPGTLSLSPGERATLSCRASQSVSNMFLVWYQQKPGQAPRLLMYGASTRATDIPDRFSGSGSGTDFTLTISRLEPEDFAVYYCQQNGNSPYTFGQGTKLEIK
notes: Fully human monoclonal antibody, wild-type variable regions; tested as IgG; also called MY006-2F8
binding [3]: binds | binding [4]: binds | binding [5]: binds

binding [1]: binds | binding [6]: binds
B3: 17H9_rb_IGHV1S7_J3+IGKV1S34_JK1-2 (antibody, V domains shown)
VH: QQLKESGGGLVKPGGSLKLCCKASGFTFSTYGMHWVRQAPGKGLEWIGIISPDGGHQDYADPVRGRFTLSRDNAQSTVCLQLNSLTAADTATYFCARTLCARTDCTWVRSDSWGPGTLVTVSS
VL: DVVMTQTPSPVSAAVGGTVTINCRASQRVSGDYLAWYQQKPGQPPKLLIYGASSRATGVPSRFSGSGSGTEFTLTISDLECADAATYYCQHYNGPPVTFGGGTEVVVK

binding [1]: binds | binding [6]: binds
B4: 17H9_rb_IGHV1S7_J3+IGKV1S34_JK1-5 (antibody, V domains shown)
VH: B3 VH
VL: B3 VL with G101E, G102E, E104K, V105L, V106E, V107I

B5: 17H9 (antibody, V domains shown)
VH: QVQLEEYGGGVVQPGRSLRLSCVASGSTLGTYGMHWVRQAPGKGLEWVAIISPDGGHQDYADPVRGRFTVSRDNSKNTLYLQMDNLRVEDTAVYYCATTLCARTDCTWVRSDSWGQGTLVTVSS
VL: ANVLTQSPGTLSLSPGERATLSCRASQRVSGDYLAWYQQKRGQAPRLLIYGASSRATGIPDRFSGSGSGTDFTLTISRLEPEDFAVYYCQHYNGPPVTFGQGTKLEIK
notes: Fully human monoclonal antibody, wild-type variable regions; tested as IgG (detected with anti-human IgG); also called MY006-17H9
binding [3]: binds | binding [7]: binds | binding [8]: binds | binding [9]: binds | binding [5]: binds | binding [10]: binds
